Source: article PMC13139468, “A model for drug transport across two membranes of Gram-negative bacteria by an MFS tripartite assembly” (Nature Communications, 2026)
No constants are given. Whether binding was seen depends on the method and setting. Sequences can lack the tags named with a protein.

Target: EmrB (modified EmrB, the BRIL-EmrB-ALFA part of the EmrB-EmrA fusion protein) (E. coli K-12 strain MG1655) (UniProt P0AEJ0)
Assay: cryo-EM structure; EmrAB-TolC pump-EA (EmrB-EmrA fusion protein, modified free EmrA, TolC-FLAG), co-expressed and purified as a complex, in peptidisc, 0.7 mg/mL, holey carbon grids; single-particle cryo-EM, 300 kV; maps at 3.13 Å and 3.14 Å; both purified

B1: EmrB (modified EmrB, the BRIL-EmrB-ALFA part of the EmrB-EmrA fusion protein) (protein, UniProt P0AEJ0 13-498)
chain: VIMTIALSLATFMQVLDSTIANVAIPTIAGNLGSSLSQGTWVITSFGVANAISIPLTGWLAKRVGEVKLFLWSTIAFAIASWACGVSSSLNMLIFFRVIQGIVAGPLIPLSQSLLLNNYPPAKRSIALALWSMTVIVAPICGPILGGYISDNYHWGWIFFINVPIGVAVVLMTLQTLRGRETRTERRRIDAVGLALLVIGIGSLQIMLDRGKELDWFSSQEIIILTVVAVVAICFLIVWELTDDNPIVDLSLFKSRNFTIGCLCISLAYMLYFGAIVLLPQLLQEVYGYTATWAGLASAPVGIIPVILSPIIGRFAHKLDMRRLVTFSFIMYAVCFYWRAYTFEPGMDFGASAWPQFIQGFAVACFFMPLTTITLSGLPPERLAAASSLSNFTRTLAGSIGTSITTTMWTNRESMHHAQLTESVNPFNPNAQAMYSQLEGLGMTQQQASGWIAQQITNQGLIISANEIFWMSAGIFLVLLGLVWFA
binding: no binding
